Source: PMC4089487
These are yes or no findings as the source states them, for the method shown. Some entries that bind do so weakly or less than the wild type.

Key:
[1] = biological target: ICAM-5 D1–D4 fragment (the four most N-terminal glycosylated IgSF domains of intercellular cell adhesion molecule-5) (UniProt Q9UMF0); assay: crystal structure; IC5-4D crystals, space group R3; 10% PEG 4000, 100 mM sodium acetate pH 5.6, 21°C; contacts between symmetry-related molecules analysed with PISA; 3.7 Å; both purified
[2] = biological target: ICAM-5 D1–D4 fragment (the four most N-terminal glycosylated IgSF domains of intercellular cell adhesion molecule-5) (UniProt Q9UMF0); assay: crystal structure; IC5-4D crystals, space group P2_(1); 10% PEG 4000, 100 mM Tris–HCl pH 8.5, microseeding, 21°C; contacts between symmetry-related molecules analysed with PISA; 2.5 Å; both purified
[3] = biological target: ICAM-5 D1–D4 fragment (the four most N-terminal glycosylated IgSF domains of intercellular cell adhesion molecule-5) (UniProt Q9UMF0); assay: crystal structure; IC5-4D crystals, space group P4_(3)22; 10% PEG 4000, 100 mM Tris–HCl pH 8.5, 21°C; contacts between symmetry-related molecules analysed with PISA; 3.7 Å; both purified

Measured: binding

B1: ICAM-5 D1–D4 fragment (the four most N-terminal glycosylated IgSF domains of intercellular cell adhesion molecule-5) (domain or fragment, UniProt Q9UMF0 32-409)
chain: EPFWADLQPRVAFVERGGSLWLNCSTNCPRPERGGLETSLRRNGTQRGLRWLARQLVDIREPETQPVCFFRCARRTLQARGLIRTFQRPDRVELMPLPPWQPVGENFTLSCRVPGAGPRASLTLTLLRGAQELIRRSFAGEPPRARGAVLTATVLARREDHGANFSCRAELDLRPHGLGLFENSSAPRELRTFSLSPDAPRLAAPRLLEVGSERPVSCTLDGLFPASEARVYLALGDQNLSPDVTLEGDAFVATATATASAEQEGARQLVCNVTLGGENRETRENVTIYSFPAPLLTLSEPSVSEGQMVTVTCAAGAQALVTLEGVPAAVPGQPAQLQLNATENDDRRSFFCDATLDVDGETLIKNRSAELRVLYAPR
modifications: N-linked glycans (among others at Asn23, Asn239, Asn272, Asn285)
binds: all assays above
